Measured values: publication doi:10.1101/463919
These are yes or no findings as the source states them, for the method shown. Binding seen in cells or lysates may run through a third protein. These calls come from enrichment with a bait or labelling near it, and not all partners need be listed. A no says only that the protein was not detected with the bait. Tags and fused reporters may be left off the sequences shown.

Columns and labels:
Test in all cases: affinity purification with mass spectrometry
[1] = target: T1, GFP-3xFLAG tagged TOFU-6 (C. elegans) (UniProt Q09293)
T1 sequence: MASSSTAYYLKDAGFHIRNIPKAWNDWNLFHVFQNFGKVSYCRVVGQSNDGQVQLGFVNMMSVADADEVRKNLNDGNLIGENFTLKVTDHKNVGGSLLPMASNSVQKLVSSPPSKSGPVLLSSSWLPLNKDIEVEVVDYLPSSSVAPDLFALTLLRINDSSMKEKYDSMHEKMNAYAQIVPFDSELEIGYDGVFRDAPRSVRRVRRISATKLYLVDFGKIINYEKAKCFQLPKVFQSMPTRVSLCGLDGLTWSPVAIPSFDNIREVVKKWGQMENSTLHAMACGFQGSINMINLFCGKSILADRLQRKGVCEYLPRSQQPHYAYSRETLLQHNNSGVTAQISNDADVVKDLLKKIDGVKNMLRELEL

[2] = target: T2, GFP-3xFLAG tagged TOST-1 (C. elegans) (UniProt Q18490)
T2 sequence: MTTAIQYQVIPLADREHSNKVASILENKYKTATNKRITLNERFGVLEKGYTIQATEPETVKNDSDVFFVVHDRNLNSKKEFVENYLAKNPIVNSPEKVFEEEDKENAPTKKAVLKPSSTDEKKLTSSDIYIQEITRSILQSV

[3] = target: T3, GFP::3xFLAG tagged PICS-1 (C. elegans) (UniProt O76616)
T3 sequence: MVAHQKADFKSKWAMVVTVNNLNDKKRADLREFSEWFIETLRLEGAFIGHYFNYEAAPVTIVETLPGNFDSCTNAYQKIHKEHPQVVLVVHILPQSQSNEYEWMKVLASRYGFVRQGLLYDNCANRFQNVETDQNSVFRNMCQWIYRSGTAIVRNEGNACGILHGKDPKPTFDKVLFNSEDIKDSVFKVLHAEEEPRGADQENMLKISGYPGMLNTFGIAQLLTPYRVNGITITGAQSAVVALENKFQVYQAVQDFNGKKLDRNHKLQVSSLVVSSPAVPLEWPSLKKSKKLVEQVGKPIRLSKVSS

[4] = target: T4, GFP-3xFLAG tagged ERH-2 (C. elegans) (UniProt Q20057)
T4 sequence: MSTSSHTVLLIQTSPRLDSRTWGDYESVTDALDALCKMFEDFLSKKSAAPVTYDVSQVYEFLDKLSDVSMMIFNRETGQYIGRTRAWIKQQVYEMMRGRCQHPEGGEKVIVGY

B1: PID-1 (protein, UniProt Q19541 1-169)
chain: MSAKREFSHITLASTPFKKRIDQNSLKTDSDIEKDTNIAHKCAERFNYNTNLHRKVTLSDRFELAALGYEMKAKPRTIIEKHNDCDEFHFIYRKEKKNDYGTGSPLSAGLSLSNPLPAGRGFLSPAIQNTSNQFTFSGSPRITPQKHTPVSANHKPARSIFDDIPSNIA
**Q.** Which binding [1] does the source give for B1 here?
**A.** binds

B2: TOST-1 (twenty-one u antagonist-1) (protein, UniProt Q18490 1-142)
chain: T2 sequence
**Q.** How did the binding [1] turn out when B2 was run?
**A.** binds

B3: IFE-3 (protein, UniProt O61955 1-251)
chain: MSTSVAENKALSASGDVNASDASVPPELLTRHPLQNRWALWYLKADRNKEWEDCLKMVSLFDTVEDFWSLYNHIQSAGGLNWGSDYYLFKEGIKPMWEDVNNVQGGRWLVVVDKQKLQRRTQLLDHYWLELLMAIVGEQFDEYGDYICGAVVNVRQKGDKVSLWTRDATRDDVNLRIGQVLKQKLSIPDTEILRYEVHKDSSARTSSTVKPRICLPAKDPAPVKEKGPAATTSPSNPGTEATGTSPATPTP
**Q.** With B3 as the binder, how does the binding [2] read?
**A.** binds

**Q.** And the binding [1]?
**A.** binds

B4: PARN-1 (protein, UniProt Q21412 1-566)
chain: MVIVTDSNFLDAAGTLRKGLLYCDFVAIDFEFLGLDVSAISLHDTVESRYQILRDNVIKYRPCQLGLTLFKQKSNRAYKADTYSVPLFQRFGDNDTSISLPSMRFLVKNKFNLNQVFMDGVEFCTRKEFKKFERALLAGTAASYLSREVKSQIELLKVMVHEKCYQSTSYHITHRTDEPMQKIPLKMKPNSSVSLRMPRNLSSVEKYMIIYELTKAFPQFLFTCDEKQQNLHVKNISDDYLKEKDNLERARARCSESVKGVSAILQVVHMTGKLVVGHNSLLDAMYMYHYFFSHLPANYQMFKDKFNALFPRIMDTKLLAQALRFELPGVGDSLENLGDYFGSDKSDKTVPPELRGFIEPWMNPLEDESENVYHNAGFDSYVTGEVFLKLAHIYINRRNNFKNEILDFDRIYQYLEAPILNRLPFQLMDVGCCYLTGDDSKGFRPDVITIVRRDRVAIEEDEFRYLEKALGTLMATYQFDIEWSKNKKELFLATNSPGSYAFLCEKFSNDSSLAPLDELDSGKKWTFEQRQTAWRSFKNRGVGIGINAKRIRAQNQATKIQRAMEI
**Q.** For B4, which binding [2] is on record?
**A.** no binding

**Q.** And the binding [1]?
**A.** no binding

**Q.** What about the binding [3] of the same binder?
**A.** no binding

**Q.** And the binding [4]?
**A.** no binding
